{
  "source": "patent US12478680B2",
  "about": "“Hydrogels with biodegradable crosslinking” (ProLynx LLC, priority 2011, dated 2025)",
  "assay": "Diffusion of proteins or small molecule from hyaluronic acid hydrogel matrix",
  "type": "physicochemical",
  "settings": "stable hyaluronic acid hydrogel; for t1/2 (2K gel), half-life for diffusion from the gel: DBCO-HA crosslinked with diazido-PEG MW=2000; for t1/2 (5K gel), half-life for diffusion from the gel: DBCO-HA crosslinked with diazido-PEG MW=5000",
  "note": "At least one read-out could not be matched to a standard name with certainty.",
  "data": [
    {"substance": "carbonic anhydrase", "values": [
      {"measurement": "t1/2 (2K gel), half-life for diffusion from the gel", "value": 3.66, "unit": "h"},
      {"measurement": "t1/2 (5K gel), half-life for diffusion from the gel", "value": 3.36, "unit": "h"}
    ]},
    {"substance": "myoglobin", "values": [
      {"measurement": "t1/2 (2K gel), half-life for diffusion from the gel", "value": 3.98, "unit": "h"},
      {"measurement": "t1/2 (5K gel), half-life for diffusion from the gel", "value": 3.14, "unit": "h"}
    ]}
  ]
}
